No constants are given. Whether binding was seen depends on the method and setting. Some binding calls cover weakened binding; strength is not graded here. Sequences can lack the tags named with a protein.

Sequences of proteins named here, by UniProt entry; tags and fusion partners are left off. A change or cut given only in a name is not applied to a line headed by its entry.
UniProt Q04206: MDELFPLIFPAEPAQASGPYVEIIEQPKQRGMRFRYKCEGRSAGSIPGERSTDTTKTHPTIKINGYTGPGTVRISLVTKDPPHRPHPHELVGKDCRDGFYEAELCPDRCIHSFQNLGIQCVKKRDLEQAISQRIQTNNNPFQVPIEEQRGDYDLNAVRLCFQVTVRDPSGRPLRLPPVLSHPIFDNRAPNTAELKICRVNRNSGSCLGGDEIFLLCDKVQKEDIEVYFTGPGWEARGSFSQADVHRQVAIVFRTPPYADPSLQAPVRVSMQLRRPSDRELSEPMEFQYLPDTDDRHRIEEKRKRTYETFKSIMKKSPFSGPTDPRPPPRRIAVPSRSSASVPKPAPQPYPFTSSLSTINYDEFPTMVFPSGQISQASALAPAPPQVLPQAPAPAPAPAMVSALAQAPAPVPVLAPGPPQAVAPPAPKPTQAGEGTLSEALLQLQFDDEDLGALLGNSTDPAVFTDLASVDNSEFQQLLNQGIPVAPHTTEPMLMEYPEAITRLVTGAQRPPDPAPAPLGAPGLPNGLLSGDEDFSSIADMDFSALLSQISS

In this test the target is T1, FLAG-GST-fused RelA (UniProt Q04206 1-551).
T1 construct: Immobilized on glutathione magnetic beads on the non-denatured protein array; Order of the parts follows the printed name FLAG-GST; also called FLAG-GST-fused immobilized substance (RelA); not shown: FLAG tag protein; GST protein (glutathione S-transferase tag)
In words: AirID proximity biotinylation on non-denatured protein array; HRP-streptavidin chemiluminescence.

B1: AirID-fused Iκβα (other)
chain: MKDNTVPLTLISILADGEFHSGEQLGEQLGMSRAAINKHIKTLRDWGVDVFRVQGKGYCLPEPIQLLDEEKIRQQLDEGSVTVLPVIDSTNQYLLDRLDELTSGDVCIAEYQQAGRGSRGRKWFSPFGANLYLSMYWRLEQGPAAAMGLSLVIGIVMAETLQKLGADGVRVKWPNDLYLNDRKLAGILVEMTGKTGDAAHIVIGAGINLSMREPETDEVDQSWINLQEAGITIDRNQLAARLIKDLRSALRQFEQQGLAPFLSRWEALDNFINRPVKLIIGDREIHGIARGINEQGALLLEQDGVIKPWIGGEISLRSAMFQAAERPQEWAMEGPRDGLKKERLLDDRHDSGLDSMKDEEYEQMVKELQEIRLEPQEVPRSSEPWKQQLTEDGDSFLHLAIIHEEKALTMEVIRQVKGDLAFLNFQNNLQQTPLHLAVITNQPEIAEALLGAGCDPELRDFRGNTPLHLACEQGCLASVGVLTQSCTTPHLHSILKATNYNGHTCLHLASIHGYLGIVELLVSLGADVNAQEPCNGRTALHLAVDLQNPDLVSLLLKCGADVNRVTYQGYSPYQLTWGRPSTRIQQQLGQLTLENLQMLPESEDEESYDTESEFTEFTEDELPYDDCVFGGQRLTL
notes: Fusion made in a wheat cell-free system; also called AirID-fused substance to be analyzed (Iκβα)
As for B1, the binding result was “binds”.

These data come from US20230251254A1, “METHOD FOR EVALUATING INTERACTION BETWEEN IMMOBILIZED SUBSTANCE IMMOBILIZED DIRECTLY OR INDIRECTLY ON SUBSTRATE AND PROXIMITY-DEPENDENT MODIFYING ENZYMELABELED SUBSTANCE TO BE ANALYZED” (CELLFREE SCIENCES CO.,LTD., priority 2020, published 2023).
